In assay [1] the target is CUL4A (human (endogenous in K562)) (UniProt Q13619). Put plainly: co-IP; total (whole) cell extracts of K562 RepID WT and KO cells; IP with 3 µg anti-CUL4A or anti-JARID1A, 14 h at 4 °C, Sepharose beads 2 h, washed three times with PBS; immunoblot; also after PMA for 48 h.
Assay [2] addresses JARID1A (human (endogenous in K562)) (UniProt P29375). The description is as above.

Sequences of proteins named here, by UniProt entry; tags and fusion partners are left off.
UniProt P29375: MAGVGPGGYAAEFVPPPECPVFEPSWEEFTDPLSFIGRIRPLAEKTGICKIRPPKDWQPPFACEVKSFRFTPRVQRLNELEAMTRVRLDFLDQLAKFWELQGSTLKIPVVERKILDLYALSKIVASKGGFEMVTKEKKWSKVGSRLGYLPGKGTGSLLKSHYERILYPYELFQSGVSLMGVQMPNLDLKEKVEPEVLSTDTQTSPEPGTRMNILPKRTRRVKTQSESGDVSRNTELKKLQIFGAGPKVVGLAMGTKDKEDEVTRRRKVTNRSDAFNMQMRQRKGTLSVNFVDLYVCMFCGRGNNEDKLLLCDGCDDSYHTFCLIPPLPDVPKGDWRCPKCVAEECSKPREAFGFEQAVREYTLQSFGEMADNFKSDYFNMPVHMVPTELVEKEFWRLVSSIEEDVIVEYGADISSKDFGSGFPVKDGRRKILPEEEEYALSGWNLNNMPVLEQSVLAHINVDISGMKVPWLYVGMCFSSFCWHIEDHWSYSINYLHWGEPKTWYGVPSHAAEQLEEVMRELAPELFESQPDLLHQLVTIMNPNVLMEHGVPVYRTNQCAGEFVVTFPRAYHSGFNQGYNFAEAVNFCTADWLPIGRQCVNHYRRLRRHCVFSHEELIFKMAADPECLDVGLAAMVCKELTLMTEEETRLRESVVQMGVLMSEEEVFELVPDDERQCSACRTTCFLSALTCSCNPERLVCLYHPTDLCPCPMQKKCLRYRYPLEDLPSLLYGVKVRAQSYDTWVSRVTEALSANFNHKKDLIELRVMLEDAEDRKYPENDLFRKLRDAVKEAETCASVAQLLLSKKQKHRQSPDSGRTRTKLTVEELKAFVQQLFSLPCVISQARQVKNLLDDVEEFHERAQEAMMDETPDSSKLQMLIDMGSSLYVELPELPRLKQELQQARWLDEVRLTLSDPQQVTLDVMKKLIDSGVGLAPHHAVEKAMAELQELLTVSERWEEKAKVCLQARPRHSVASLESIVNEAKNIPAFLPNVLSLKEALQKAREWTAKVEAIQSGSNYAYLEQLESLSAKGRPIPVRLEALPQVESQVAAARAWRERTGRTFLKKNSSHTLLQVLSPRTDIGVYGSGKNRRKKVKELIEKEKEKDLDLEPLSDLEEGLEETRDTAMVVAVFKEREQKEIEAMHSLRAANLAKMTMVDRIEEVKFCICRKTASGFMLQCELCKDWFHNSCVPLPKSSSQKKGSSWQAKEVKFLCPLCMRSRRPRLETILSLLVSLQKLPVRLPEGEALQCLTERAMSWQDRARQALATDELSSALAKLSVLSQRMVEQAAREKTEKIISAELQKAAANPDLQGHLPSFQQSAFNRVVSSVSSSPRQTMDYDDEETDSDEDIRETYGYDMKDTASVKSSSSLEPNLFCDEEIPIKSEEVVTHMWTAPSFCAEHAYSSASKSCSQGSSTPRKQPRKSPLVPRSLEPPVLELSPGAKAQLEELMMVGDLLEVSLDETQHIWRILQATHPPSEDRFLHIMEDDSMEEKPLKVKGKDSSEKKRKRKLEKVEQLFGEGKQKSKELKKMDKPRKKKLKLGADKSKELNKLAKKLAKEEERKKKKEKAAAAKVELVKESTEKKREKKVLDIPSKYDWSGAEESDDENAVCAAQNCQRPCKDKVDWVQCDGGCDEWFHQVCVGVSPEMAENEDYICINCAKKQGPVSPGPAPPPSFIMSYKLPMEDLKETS

No constants are given. Whether binding was seen depends on the method and setting. Binding seen in cells or lysates may run through a third protein. Some binding calls cover weakened binding; strength is not graded here.

Take “Replication initiation determinant protein (RepID) (from UniProt Q8WWQ0 1-1821)”: in assay [1], the binding result is listed as “binds”.
In the case of CUL4A (from UniProt Q13619 1-759), the binding result in assay [2] was “binds”.
